For one assay, the target named is HA-tagged PAX3 (UniProt P24610). Nature of the assay: affinity purification with mass spectrometry; immunoprecipitation of PAX3 from extracts of C2C12 cells transfected with HA-tagged Pax3; mass spectrometry.
For a further assay, the target named is GST-PAX3 (UniProt P24610). Nature of the assay: affinity purification with mass spectrometry; protein extracts of E10.5 wild type mouse limb buds incubated with GST-PAX3 protein, then immunoprecipitation with an anti-PAX3 antibody; mass spectrometry; only the target purified.
Assay [1] has as its target CA BRAF (V600E) (transfected, pEFm-V600E) (UniProt P15056). The assay can be described thus: affinity purification with mass spectrometry; immunoprecipitation of BRAF from RIPA lysates of C2C12 cells transfected with CA Braf (V600E); SDS-PAGE, in-gel digestion, mass spectrometry.
The target in assay [2] is BRAF (endogenous, mouse) (mouse (endogenous in E10.5 limb buds and C2C12)) (UniProt P28028). The assay can be described thus: affinity purification with mass spectrometry; immunoprecipitation with an antibody against endogenous BRAF (Sepharose G beads) from RIPA extracts of E10.5 wild type mouse limb buds; SDS-PAGE, in-gel digestion, mass spectrometry.

Amino acid sequences for entries named in this document (tags omitted). A change or cut given only in a name is not applied to a line headed by its entry.
UniProt P24610: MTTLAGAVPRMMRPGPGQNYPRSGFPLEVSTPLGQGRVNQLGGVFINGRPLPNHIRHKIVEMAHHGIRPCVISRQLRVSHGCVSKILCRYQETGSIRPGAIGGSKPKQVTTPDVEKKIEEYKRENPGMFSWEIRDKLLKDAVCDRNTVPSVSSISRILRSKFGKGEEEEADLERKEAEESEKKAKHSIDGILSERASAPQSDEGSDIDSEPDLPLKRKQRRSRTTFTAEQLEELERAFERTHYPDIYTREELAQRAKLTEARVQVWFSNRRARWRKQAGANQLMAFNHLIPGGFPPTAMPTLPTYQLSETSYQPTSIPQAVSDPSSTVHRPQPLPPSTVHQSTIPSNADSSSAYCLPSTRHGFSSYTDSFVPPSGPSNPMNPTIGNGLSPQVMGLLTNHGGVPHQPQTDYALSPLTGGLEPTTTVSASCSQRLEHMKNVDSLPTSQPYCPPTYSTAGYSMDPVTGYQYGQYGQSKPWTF
UniProt P15056: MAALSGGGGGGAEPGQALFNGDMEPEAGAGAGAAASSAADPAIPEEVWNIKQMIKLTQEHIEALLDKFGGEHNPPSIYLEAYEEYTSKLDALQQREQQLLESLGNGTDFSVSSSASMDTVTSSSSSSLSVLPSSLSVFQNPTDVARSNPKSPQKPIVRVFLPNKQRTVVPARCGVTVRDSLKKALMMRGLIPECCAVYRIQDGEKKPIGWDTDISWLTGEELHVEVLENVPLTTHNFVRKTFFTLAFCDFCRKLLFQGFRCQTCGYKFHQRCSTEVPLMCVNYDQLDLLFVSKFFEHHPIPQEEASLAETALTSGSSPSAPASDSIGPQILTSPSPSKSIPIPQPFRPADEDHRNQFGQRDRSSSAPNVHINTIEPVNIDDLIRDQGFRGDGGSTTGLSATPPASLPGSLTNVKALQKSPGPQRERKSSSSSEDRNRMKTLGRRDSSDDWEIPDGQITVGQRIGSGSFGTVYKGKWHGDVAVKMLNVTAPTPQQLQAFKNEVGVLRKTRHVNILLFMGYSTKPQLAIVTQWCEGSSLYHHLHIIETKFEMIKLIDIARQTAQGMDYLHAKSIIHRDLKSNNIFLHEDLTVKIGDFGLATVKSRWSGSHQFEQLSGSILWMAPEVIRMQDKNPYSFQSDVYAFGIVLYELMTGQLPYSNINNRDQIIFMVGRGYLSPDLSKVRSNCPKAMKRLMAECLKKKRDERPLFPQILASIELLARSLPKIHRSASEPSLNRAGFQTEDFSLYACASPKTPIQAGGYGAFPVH
UniProt P28028: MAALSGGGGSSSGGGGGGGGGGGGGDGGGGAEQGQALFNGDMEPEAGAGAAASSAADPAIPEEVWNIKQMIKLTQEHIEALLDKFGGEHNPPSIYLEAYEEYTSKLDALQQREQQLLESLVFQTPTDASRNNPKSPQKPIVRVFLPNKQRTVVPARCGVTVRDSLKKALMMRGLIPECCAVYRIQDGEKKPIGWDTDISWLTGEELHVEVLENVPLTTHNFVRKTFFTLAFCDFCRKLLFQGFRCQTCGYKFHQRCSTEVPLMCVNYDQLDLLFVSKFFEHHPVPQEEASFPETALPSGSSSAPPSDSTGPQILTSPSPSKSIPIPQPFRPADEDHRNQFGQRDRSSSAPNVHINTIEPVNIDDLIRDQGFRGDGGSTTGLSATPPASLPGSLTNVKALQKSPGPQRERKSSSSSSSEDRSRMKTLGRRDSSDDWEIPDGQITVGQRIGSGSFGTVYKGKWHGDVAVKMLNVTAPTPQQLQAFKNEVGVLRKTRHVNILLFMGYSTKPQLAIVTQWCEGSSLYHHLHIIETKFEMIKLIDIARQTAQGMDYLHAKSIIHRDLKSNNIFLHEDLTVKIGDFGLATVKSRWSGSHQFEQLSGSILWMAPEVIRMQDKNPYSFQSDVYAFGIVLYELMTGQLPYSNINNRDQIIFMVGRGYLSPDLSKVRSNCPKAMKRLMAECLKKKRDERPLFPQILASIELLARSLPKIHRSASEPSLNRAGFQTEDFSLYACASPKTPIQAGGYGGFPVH
UniProt P84084: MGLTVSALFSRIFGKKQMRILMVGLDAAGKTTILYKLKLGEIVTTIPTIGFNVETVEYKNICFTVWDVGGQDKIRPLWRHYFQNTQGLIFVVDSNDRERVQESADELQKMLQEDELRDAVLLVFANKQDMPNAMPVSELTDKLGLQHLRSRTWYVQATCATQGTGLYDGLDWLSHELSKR
UniProt P62331: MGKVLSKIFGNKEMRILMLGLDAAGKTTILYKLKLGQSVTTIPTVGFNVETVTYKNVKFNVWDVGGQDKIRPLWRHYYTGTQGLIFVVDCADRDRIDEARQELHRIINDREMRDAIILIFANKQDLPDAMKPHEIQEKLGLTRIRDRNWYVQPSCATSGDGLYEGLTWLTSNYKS
UniProt P47239: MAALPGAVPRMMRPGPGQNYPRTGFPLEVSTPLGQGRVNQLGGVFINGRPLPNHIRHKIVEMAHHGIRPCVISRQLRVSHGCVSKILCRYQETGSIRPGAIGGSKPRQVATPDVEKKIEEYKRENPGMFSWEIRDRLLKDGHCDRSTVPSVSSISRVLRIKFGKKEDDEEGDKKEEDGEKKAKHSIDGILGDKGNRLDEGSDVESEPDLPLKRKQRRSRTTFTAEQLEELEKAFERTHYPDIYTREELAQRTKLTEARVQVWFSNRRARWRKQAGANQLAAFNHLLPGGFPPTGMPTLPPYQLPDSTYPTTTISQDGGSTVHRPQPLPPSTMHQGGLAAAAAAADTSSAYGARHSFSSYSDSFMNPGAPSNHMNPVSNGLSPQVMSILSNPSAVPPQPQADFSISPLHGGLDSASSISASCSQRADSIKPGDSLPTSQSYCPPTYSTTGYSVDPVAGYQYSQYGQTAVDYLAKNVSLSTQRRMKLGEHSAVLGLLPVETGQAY

No constants are given. Whether binding was seen depends on the method and setting. Binding seen in cells or lysates may run through a third protein. Here binding means that the protein was enriched with, or labelled near, the bait; the list need not be complete.

This passage reports binding results from article PMC5148607.

For ARF5 (from UniProt P84084 1-180), the binding result with HA-tagged PAX3 and with GST-PAX3 was “binds” throughout.
Consider “ARF6 (ADP ribosylation factor 6) (from UniProt P62331 1-175)”, for which the binding entry with HA-tagged PAX3 and with GST-PAX3 was “binds” each time.
On to “BRAF (endogenous, mouse) (from UniProt P28028 1-751) (enzyme)”, for which the binding result with HA-tagged PAX3 and with GST-PAX3 was “binds” in each case.
For “PAX3 (endogenous, mouse) (from UniProt P24610 1-479)”, the binding result in assay [1] and in assay [2] was “binds” each time.
As to “PAX7 (endogenous, mouse) (from UniProt P47239 1-503)”, the binding entry in assay [1] and in assay [2] was “binds” in each case.
